# The list shows a part of the results.
# How the values were obtained:
# Assay in all cases: glycan array binding signal (z-score within array); higher = stronger binding
# Settings in all cases: glycan notation: IUPAC condensed, linker removed
# [1] = target: GlcNAc(b1-2)Gal(b1-3)GalNAc
# Method in brief: (§1)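 Glycan array data came from 3228 arrays in the Consortium for Functional Glycomics database, and only arrays with an available protein sequence were kept. Glycan names were put into IUPAC-condensed notation, and columns mapping to the same glycan were averaged. The binding signal is a within-array Z-score, averaged across arrays of one protein sequence run at different concentrations or buffers and across linkers. A negative Z-score can be read as non-binding.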
# [2] = target: GlcNAc(b1-2)Man(a1-3)[GlcNAc(b1-2)Man(a1-6)]Man(b1-4)GlcNAc(b1-4)GlcNAc
# Method in brief: as §1
# [3] = target: GlcNAc(b1-2)Man(a1-3)[GlcNAc(b1-2)Man(a1-6)]Man(b1-4)GlcNAc(b1-4)[Fuc(a1-6)]GlcNAc
# Method in brief: as §1
# [4] = target: GlcNAc(b1-2)Man(a1-3)[GlcNAc(b1-4)][GlcNAc(b1-2)Man(a1-6)]Man(b1-4)GlcNAc(b1-4)GlcNAc
# Method in brief: as §1
# [5] = target: GlcNAc(b1-2)Man(a1-3)[GlcNAc(b1-4)][GlcNAc(b1-2)Man(a1-6)]Man(b1-4)GlcNAc(b1-4)[Fuc(a1-6)]GlcNAc
# Method in brief: as §1
# [6] = target: GlcNAc(b1-2)[GlcNAc(b1-4)]Man(a1-3)[GlcNAc(b1-2)Man(a1-6)]Man(b1-4)GlcNAc(b1-4)GlcNAc
# Method in brief: as §1
# [7] = target: GlcNAc(b1-2)[GlcNAc(b1-4)]Man(a1-3)[GlcNAc(b1-4)][GlcNAc(b1-2)Man(a1-6)]Man(b1-4)GlcNAc(b1-4)GlcNAc
# Method in brief: as §1
# [8] = target: GlcNAc(b1-2)[GlcNAc(b1-4)]Man(a1-3)[GlcNAc(b1-4)][GlcNAc(b1-2)[GlcNAc(b1-6)]Man(a1-6)]Man(b1-4)GlcNAc(b1-4)GlcNAc
# Method in brief: as §1
# [9] = target: GlcNAc(b1-2)[GlcNAc(b1-4)]Man(a1-3)[GlcNAc(b1-4)][GlcNAc(b1-2)[GlcNAc(b1-6)]Man(a1-6)]Man(b1-4)GlcNAc(b1-4)[Fuc(a1-6)]GlcNAc
# Method in brief: as §1
# [10] = target: GlcNAc(b1-2)[GlcNAc(b1-6)]Man(a1-6)[GlcNAc(b1-2)Man(a1-3)]Man(b1-4)GlcNAc(b1-4)GlcNAc
# Method in brief: as §1
# [11] = target: GlcNAc(b1-2)[GlcNAc(b1-6)]Man(a1-6)[GlcNAc(b1-2)Man(a1-3)]Man(b1-4)GlcNAc(b1-4)[Fuc(a1-6)]GlcNAc
# Method in brief: as §1
# [12] = target: GlcNAc(b1-2)[GlcNAc(b1-6)]Man(a1-6)[GlcNAc(b1-4)][GlcNAc(b1-2)Man(a1-3)]Man(b1-4)GlcNAc(b1-4)GlcNAc
# Method in brief: as §1
# GlcNAc(b1-3)Fuc = target: GlcNAc(b1-3)Fuc
# Method in brief: as §1
# GlcNAc(b1-3)Gal = target: GlcNAc(b1-3)Gal
# Method in brief: as §1
# [13] = target: GlcNAc(b1-3)Gal(b1-3)GalNAc
# Method in brief: as §1
# GlcNAc(b1-3)Gal(b1-4)Glc = target: GlcNAc(b1-3)Gal(b1-4)Glc
# Method in brief: as §1
# [14] = target: GlcNAc(b1-3)Gal(b1-4)GlcNAc
# Method in brief: as §1
# [15] = target: GlcNAc(b1-3)Gal(b1-4)GlcNAc(b1-2)Man(a1-3)[GlcNAc(b1-3)Gal(b1-4)GlcNAc(b1-2)Man(a1-6)]Man(b1-4)GlcNAc(b1-4)GlcNAc
# Method in brief: as §1
# [16] = target: GlcNAc(b1-3)Gal(b1-4)GlcNAc(b1-2)Man(a1-3)[GlcNAc(b1-3)Gal(b1-4)GlcNAc(b1-2)Man(a1-6)]Man(b1-4)GlcNAc(b1-4)[Fuc(a1-6)]GlcNAc
# Method in brief: as §1
# [17] = target: GlcNAc(b1-3)Gal(b1-4)GlcNAc(b1-2)[GlcNAc(b1-3)Gal(b1-4)GlcNAc(b1-6)]Man(a1-6)[GlcNAc(b1-3)Gal(b1-4)GlcNAc(b1-2)Man(a1-3)]Man(b1-4)GlcNAc(b1-4)GlcNAc
# Method in brief: as §1
# [18] = target: GlcNAc(b1-3)Gal(b1-4)GlcNAc(b1-3)Gal(b1-4)GlcNAc
# Method in brief: as §1
# [19] = target: GlcNAc(b1-3)Gal(b1-4)GlcNAc(b1-3)Gal(b1-4)GlcNAc(b1-2)Man(a1-3)[GlcNAc(b1-3)Gal(b1-4)GlcNAc(b1-3)Gal(b1-4)GlcNAc(b1-2)Man(a1-6)]Man(b1-4)GlcNAc(b1-4)GlcNAc
# Method in brief: as §1
# [20] = target: GlcNAc(b1-3)Gal(b1-4)GlcNAc(b1-3)Gal(b1-4)GlcNAc(b1-2)Man(a1-3)[GlcNAc(b1-3)Gal(b1-4)GlcNAc(b1-3)Gal(b1-4)GlcNAc(b1-2)Man(a1-6)]Man(b1-4)GlcNAc(b1-4)[Fuc(a1-6)]GlcNAc
# Method in brief: as §1
# [21] = target: GlcNAc(b1-3)Gal(b1-4)GlcNAc(b1-3)Gal(b1-4)GlcNAc(b1-2)[GlcNAc(b1-3)Gal(b1-4)GlcNAc(b1-3)Gal(b1-4)GlcNAc(b1-6)]Man(a1-6)[GlcNAc(b1-3)Gal(b1-4)GlcNAc(b1-3)Gal(b1-4)GlcNAc(b1-2)Man(a1-3)]Man(b1-4)GlcNAc(b1-4)[Fuc(a1-6)]GlcNAc
# Method in brief: as §1
# [22] = target: GlcNAc(b1-3)Gal(b1-4)GlcNAc(b1-3)Gal(b1-4)GlcNAc(b1-3)Gal(b1-4)GlcNAc(b1-2)Man(a1-3)[GlcNAc(b1-3)Gal(b1-4)GlcNAc(b1-3)Gal(b1-4)GlcNAc(b1-3)Gal(b1-4)GlcNAc(b1-2)Man(a1-6)]Man(b1-4)GlcNAc(b1-4)GlcNAc
# Method in brief: as §1
# [23] = target: GlcNAc(b1-3)Gal(b1-4)GlcNAc(b1-3)Gal(b1-4)GlcNAc(b1-3)Gal(b1-4)GlcNAc(b1-2)Man(a1-3)[GlcNAc(b1-3)Gal(b1-4)GlcNAc(b1-3)Gal(b1-4)GlcNAc(b1-3)Gal(b1-4)GlcNAc(b1-2)Man(a1-6)]Man(b1-4)GlcNAc(b1-4)[Fuc(a1-6)]GlcNAc
# Method in brief: as §1
# [24] = target: GlcNAc(b1-3)Gal(b1-4)GlcNAc(b1-3)Gal(b1-4)GlcNAc(b1-3)Gal(b1-4)GlcNAc(b1-2)[GlcNAc(b1-3)Gal(b1-4)GlcNAc(b1-3)Gal(b1-4)GlcNAc(b1-3)Gal(b1-4)GlcNAc(b1-6)]Man(a1-6)[GlcNAc(b1-3)Gal(b1-4)GlcNAc(b1-3)Gal(b1-4)GlcNAc(b1-3)Gal(b1-4)GlcNAc(b1-2)Man(a1-3)]Man(b1-4)GlcNAc(b1-4)[Fuc(a1-6)]GlcNAc
# Method in brief: as §1
# [25] = target: GlcNAc(b1-3)Gal(b1-4)GlcNAc(b1-3)Gal(b1-4)GlcNAc(b1-3)Gal(b1-4)GlcNAc(b1-3)Gal(b1-4)GlcNAc(b1-2)Man(a1-3)[GlcNAc(b1-3)Gal(b1-4)GlcNAc(b1-3)Gal(b1-4)GlcNAc(b1-3)Gal(b1-4)GlcNAc(b1-3)Gal(b1-4)GlcNAc(b1-2)Man(a1-6)]Man(b1-4)GlcNAc(b1-4)GlcNAc
# Method in brief: as §1
# [26] = target: GlcNAc(b1-3)Gal(b1-4)GlcNAc(b1-3)Gal(b1-4)GlcNAc(b1-3)Gal(b1-4)GlcNAc(b1-3)Gal(b1-4)GlcNAc(b1-2)Man(a1-3)[GlcNAc(b1-3)Gal(b1-4)GlcNAc(b1-3)Gal(b1-4)GlcNAc(b1-3)Gal(b1-4)GlcNAc(b1-3)Gal(b1-4)GlcNAc(b1-2)Man(a1-6)]Man(b1-4)GlcNAc(b1-4)[Fuc(a1-6)]GlcNAc
# Method in brief: as §1
# [27] = target: GlcNAc(b1-3)Gal(b1-4)GlcNAc(b1-3)Gal(b1-4)GlcNAc(b1-3)Gal(b1-4)GlcNAc(b1-3)Gal(b1-4)GlcNAc(b1-2)[GlcNAc(b1-3)Gal(b1-4)GlcNAc(b1-3)Gal(b1-4)GlcNAc(b1-3)Gal(b1-4)GlcNAc(b1-3)Gal(b1-4)GlcNAc(b1-6)]Man(a1-6)[GlcNAc(b1-3)Gal(b1-4)GlcNAc(b1-3)Gal(b1-4)GlcNAc(b1-3)Gal(b1-4)GlcNAc(b1-3)Gal(b1-4)GlcNAc(b1-2)Man(a1-3)]Man(b1-4)GlcNAc(b1-4)[Fuc(a1-6)]GlcNAc
# Method in brief: as §1
# [28] = target: GlcNAc(b1-3)Gal(b1-4)GlcNAc(b1-3)Gal(b1-4)GlcNAc(b1-3)GalNAc
# Method in brief: as §1
# [29] = target: GlcNAc(b1-3)Gal(b1-4)GlcNAc(b1-3)GalNAc
# Method in brief: as §1
# [30] = target: GlcNAc(b1-3)Gal(b1-4)GlcNAc(b1-3)[GlcNAc(b1-3)Gal(b1-4)GlcNAc(b1-3)]GalNAc
# Method in brief: as §1
# [31] = target: GlcNAc(b1-3)Gal(b1-4)GlcNAc(b1-6)[Gal(b1-3)]GalNAc
# Method in brief: as §1
# [32] = target: GlcNAc(b1-3)Gal(b1-4)GlcNAc(b1-6)[GlcNAc(b1-3)Gal(b1-3)]GalNAc
# Method in brief: as §1
# [33] = target: GlcNAc(b1-3)Gal(b1-4)GlcNAc(b1-6)[GlcNAc(b1-3)]Gal(b1-4)GlcNAc
# Method in brief: as §1
# GlcNAc(b1-3)GalNAc = target: GlcNAc(b1-3)GalNAc
# Method in brief: as §1
# GlcNAc(b1-3)Man = target: GlcNAc(b1-3)Man
# Method in brief: as §1
# [34] = target: GlcNAc(b1-3)[GlcNAc(b1-4)][GlcNAc(b1-6)]GlcNAc
# Method in brief: as §1
# [35] = target: GlcNAc(b1-3)[GlcNAc(b1-6)]Gal(b1-4)GlcNAc
# Method in brief: as §1
# [36] = target: GlcNAc(b1-3)[GlcNAc(b1-6)]GalNAc
# Method in brief: as §1
# [37] = target: GlcNAc(b1-4)Gal(b1-4)GlcNAc
# Method in brief: as §1
# GlcNAc(b1-4)GlcNAc = target: GlcNAc(b1-4)GlcNAc
# Method in brief: as §1
# [38] = target: GlcNAc(b1-4)GlcNAc(b1-4)GlcNAc
# Method in brief: as §1
# [39] = target: GlcNAc(b1-4)GlcNAc(b1-4)GlcNAc(b1-4)GlcNAc(b1-4)GlcNAc
# Method in brief: as §1
binder,measurement,setting,value
Aap arpt (Staphylococcus epidermidis) (protein) NNEAPQMSSTLQAEEGSNAEAPQSEPTKAEEGGNAEAAQSEPTKAEEGGNAEAPQSEPTKAEEGGNAEAAQSEPTKTEEGSNVKAAQSEPTKAEEGSNAEAPQSEPTKTEEGSNAKAAQSEPTKAEEGGNAEAAQSEPTKTEEGSNAEAPQSEPTKAEEGGYAEAPQSEPTKTEEGGNAEAPNVPTIKA,glycan array binding signal (z-score),[1],0.266
same,glycan array binding signal (z-score),[2],-0.25
same,glycan array binding signal (z-score),[3],0.608
same,glycan array binding signal (z-score),[4],-0.803
same,glycan array binding signal (z-score),[5],-0.141
same,glycan array binding signal (z-score),[6],0.977
same,glycan array binding signal (z-score),[7],1.6
same,glycan array binding signal (z-score),[8],-0.611
same,glycan array binding signal (z-score),[9],1.35
same,glycan array binding signal (z-score),[10],0.85
same,glycan array binding signal (z-score),[11],-0.168
same,glycan array binding signal (z-score),[12],0.207
same,glycan array binding signal (z-score),GlcNAc(b1-3)Fuc,1.23
same,glycan array binding signal (z-score),GlcNAc(b1-3)Gal,-2.77
same,glycan array binding signal (z-score),[13],0.806
same,glycan array binding signal (z-score),GlcNAc(b1-3)Gal(b1-4)Glc,2.07
same,glycan array binding signal (z-score),[14],-0.004
same,glycan array binding signal (z-score),[15],-1.09
same,glycan array binding signal (z-score),[16],0.572
same,glycan array binding signal (z-score),[17],-0.719
same,glycan array binding signal (z-score),[18],-0.333
same,glycan array binding signal (z-score),[19],-0.258
same,glycan array binding signal (z-score),[20],1.14
same,glycan array binding signal (z-score),[21],0.827
same,glycan array binding signal (z-score),[22],-0.309
same,glycan array binding signal (z-score),[23],0.616
same,glycan array binding signal (z-score),[24],1.34
same,glycan array binding signal (z-score),[25],0.336
same,glycan array binding signal (z-score),[26],0.618
same,glycan array binding signal (z-score),[27],0.703
same,glycan array binding signal (z-score),[28],0.379
same,glycan array binding signal (z-score),[29],-0.58
same,glycan array binding signal (z-score),[30],2.15
same,glycan array binding signal (z-score),[31],-0.695
same,glycan array binding signal (z-score),[32],-1.01
same,glycan array binding signal (z-score),[33],-0.039
same,glycan array binding signal (z-score),GlcNAc(b1-3)GalNAc,1.32
same,glycan array binding signal (z-score),GlcNAc(b1-3)Man,-1.29
same,glycan array binding signal (z-score),[34],-1.73
same,glycan array binding signal (z-score),[35],-0.555
same,glycan array binding signal (z-score),[36],-0.237
same,glycan array binding signal (z-score),[37],0.285
same,glycan array binding signal (z-score),GlcNAc(b1-4)GlcNAc,-0.21
same,glycan array binding signal (z-score),[38],0.473
same,glycan array binding signal (z-score),[39],-0.328

# Looked up one by one from the entries so far (two):
binder,measurement,setting,value
Aap arpt (Staphylococcus epidermidis) (protein) NNEAPQMSSTLQAEEGSNAEAPQSEPTKAEEGGNAEAAQSEPTKAEEGGNAEAPQSEPTKAEEGGNAEAAQSEPTKTEEGSNVKAAQSEPTKAEEGSNAEAPQSEPTKTEEGSNAKAAQSEPTKAEEGGNAEAAQSEPTKTEEGSNAEAPQSEPTKAEEGGYAEAPQSEPTKTEEGGNAEAPNVPTIKA,glycan array binding signal (z-score),[21],0.827
same,glycan array binding signal (z-score),[38],0.473

# — the supplement of paper PMC8728848
